Results taken from PubChem BioAssay AID1487 (National Center for Advancing Translational Sciences (NCATS), 2009).
Values joined by “and” are separate entries in the source; they are usually repeats but may differ in a detail not shown here. Identical values can stand only once. The list shows a part of the results. These are further read-outs of the screen, such as a control signal, another cell line or another target. No call is given for them. The list favours compounds with an active or inconclusive main result. The note in brackets gives the kind of curve behind each potency; many fits are weak.

Assay: qHTS Assay for Modulators of Lamin A Splicing
Conditions: HeLa LMNA splicing GFP/RFP minigene ratio, 48 h
Summary of the method: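 S3 HeLa stable clones carrying a lamin A-EGFP splicing minigene plus DsRed2 were seeded at 600 cells/well in Opti-MEM with 2% FBS, pin-dosed and incubated 48 h at 37°C. Acumen cytometry (488 nm) gave the GFP/RFP total-intensity ratio.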

[1] = measured here: GFP splicing reporter channel
[2] = measured here: RFP viability control channel

Row | SMILES | AC50 [1] | AC50 [2]
1 | CN(C(=O)CSc1nc2ccc(NC(=O)c3ccccc3)cc2s1)c1ccccc1 | 0.0794 µM [falling, full curve, poor fit] | 
2 | CCCCOc1ccc(-c2nc(=S)[nH][nH]2)cc1 | 31.6 µM [rising, single point] | 35.5 µM [rising, single point]
3 | Cc1occc1C(=O)NNC(=O)C1CCCC1 |  | 3.55 µM [falling, full curve, poor fit]
4 | CCOc1ccccc1/C=C/c1onc(C)c1S(=O)(=O)N1CCC(C(=O)N2CCCCC2)CC1 |  | 0.0398 µM [falling, full curve, poor fit]
5 | CSc1ncccc1C(=O)Nc1nc2c(C)cccc2s1 | 11.2 µM [rising, single point] | 12.6 µM [rising, single point]
6 | Cc1nc2ccccc2nc1SCC(=O)c1ccccc1 |  | 8.91 µM [rising, single point]
7 | Cc1ccccc1-c1noc(CSc2nc(-c3ccc(F)cc3)cc(=O)[nH]2)n1 | 7.08 µM [falling, full curve, poor fit] | 3.98 µM [falling, full curve, poor fit]
8 | Cc1ccc(NC(=O)CCCc2ccccc2)nc1 | 4.47 µM [rising, partial curve, poor fit] | 
9 | O=S1(=O)CCN2C(Cc3ccc(SC(F)F)cc3)=CSC2=N1 |  | 1.41 µM [rising, partial curve]
10 | COc1ccc(NC(=S)N(CCCN2CCCC2)Cc2cccs2)cc1 | 2.82 µM [rising, full curve, poor fit] | 3.98 µM [rising, partial curve]
11 | CCN(CC)c1ccc(NC2=C(Cl)C(=O)c3ccccc3C2=O)cc1 | 35.5 µM [falling, single point] | 3.98 µM [rising, single point]
12 | CCc1ccccc1NS(=O)(=O)c1ccc2[nH]cc(C(=O)NC3CCCC3)c(=O)c2c1 |  | 31.6 µM [rising, single point]
13 | COC(=O)c1ccccc1NC(=O)CSc1ccccn1 |  | 0.501 µM [falling, full curve, poor fit]
14 | CCOc1c2ccc(C(=O)NC3CCCc4ccccc43)cc2nn1CC (stereo unspecified) |  | 20 µM [rising, single point]
15 | COc1c(Br)cc(C(N)=O)cc1OCc1ccccc1 |  | 31.6 µM [falling, single point]
16 | CCOc1ccc(C(=O)NCCc2sc(-c3cccc(F)c3)nc2C)cc1OCC | 35.5 µM [falling, partial curve, poor fit] | 0.0251 µM [falling, full curve]
17 | CCOC(=O)CC(=O)CSc1nc(-c2ccccc2)cc(-c2ccc(Cl)cc2)c1C#N | 35.5 µM [rising, single point] | 
18 | COc1ccc(OC)c(-c2csc(NC(=O)CSc3ccccc3)n2)c1 | 12.6 µM [rising, single point] | 31.6 µM [rising, single point]
19 | Cc1ccc(-n2nc3ccc(NC(=O)c4cccc([N+](=O)[O-])c4C)cc3n2)cc1 |  | 5.01 µM [rising, single point]

Row | SMILES | AC50 [1] | AC50 [2]
20 | COc1ccc(OC)c(NS(=O)(=O)c2ccc(SC)cc2)c1 |  | 20 µM [rising, single point]
21 | Cc1onc(-c2ccccc2Cl)c1C(=O)Nc1ccc(F)c(F)c1 | 35.5 µM [rising, single point] | 
22 | Cn1c(N2CCOCC2)c(/C=N/O)c2ccccc21 |  | 0.0355 µM [rising, full curve, poor fit]
23 | Cc1cc(C)cc(NC(=O)c2ccc(CSc3nnnn3C)cc2)c1 | 35.5 µM [rising, single point] | 35.5 µM [rising, single point]
24 | CCOC(=O)C1CCN(S(=O)(=O)c2ccc(CC)cc2)CC1 |  | 5.62 µM [rising, single point]
25 | CC(=O)Nc1ccc(NC(=O)C2CCCN2C(=O)Nc2ccccc2[N+](=O)[O-])cc1 (stereo unspecified) | 7.94 µM [rising, partial curve] | 7.08 µM [rising, partial curve]
26 | Clc1ccc(Cn2ncc3c(NCc4ccccc4)ncnc32)cc1 |  | 12.6 µM [rising, partial curve]
27 | Cc1ccccc1C(OCCN(C)C)c1ccccc1 (stereo unspecified) |  | 44.7 nM [falling, full curve, poor fit] and 6.31 µM [falling, single point]
28 | O=C(NC(=S)Nc1ccc(S(=O)(=O)N2CCCC2)cc1)c1cccs1 | 12.6 µM [rising, single point] | 12.6 µM [rising, partial curve]
29 | CCN(c1ccccc1)S(=O)(=O)c1cc(C(=O)Nc2cccc(Cl)c2)ccc1F |  | 22.4 µM [rising, single point]
30 | Cc1cc(SCC(=O)OC/C(O)=C(\C#N)c2nc3ccccc3[nH]2)c(C)cc1Br | 12.6 µM [falling, partial curve, poor fit] | 14.1 µM [falling, partial curve, poor fit]
31 | Cc1cc(Cl)c(S(=O)(=O)NC2CCCCC2)cc1OCC(=O)Nc1nncs1 | 4.47 µM [rising, single point] | 3.55 µM [rising, full curve]
32 | CCOC(=O)c1cc(NC(=O)Nc2nccs2)c(C)nc1C | 17.8 µM [rising, partial curve, poor fit] | 
33 | Cc1cc(C)c(NS(=O)(=O)c2ccc3c(c2)NC(=O)CCS3)c(C)c1 | 0.355 µM [rising, single point] | 
34 | Cc1c(I)c(=O)n(-c2ccccc2)n1C | 12.6 µM [falling, partial curve, poor fit] | 
35 | Cc1cccc(CNc2ccnc(-c3ccccc3C(F)(F)F)n2)c1 | 15.8 µM [falling, partial curve] | 14.1 µM [falling, partial curve]
36 | Cc1ccccc1OCCn1cnc2c(N)ncnc21 |  | 14.1 µM [rising, partial curve]
37 | COc1ccccc1N1CCN(C[C@@H](O)COc2cccc3ccccc23)CC1 | 0.398 µM [falling, full curve] | 0.316 µM [falling, full curve, poor fit]
38 | Cc1ccc2c(CSc3nc4ccccc4c(=O)n3CCCO)cc(=O)oc2c1C | 14.1 µM [rising, partial curve, poor fit] | 17.8 µM [rising, single point]

Row | SMILES | AC50 [1] | AC50 [2]
39 | CC(C)OCCCNC(=O)c1c2c(nc3ccccc13)C(=O)N(C1CCCCC1)C2 |  | 0.0447 µM [rising, full curve, poor fit]
40 | BrC(=C\c1ccccc1)/C=N/n1cnnc1 | 2.82 µM [falling, full curve, poor fit] | 
41 | CCc1cc2c(=O)c(-c3ccc4c(c3)OCCO4)coc2cc1OS(C)(=O)=O |  | 10 µM [rising, partial curve, poor fit]
42 | COc1ccc(CCNC(=O)CSc2ncnc3c2oc2ccccc23)cc1OC | 5.62 µM [rising, single point] | 
43 | Cc1cc(C)cc(Nc2ncnc3sc4c(c23)CCCC4)c1 | 0.708 µM [rising, full curve, poor fit] | 35.5 µM [rising, single point]
44 | O=C(C1=C(O)/C(=C/c2ccc(O)cc2)CCC1)C(F)(F)F |  | 35.5 µM [rising, single point]
45 | CCOC(=O)c1cc(-c2ccccc2)n(CC(=O)Nc2cc(Cl)c(OC)cc2OC)c1C | 35.5 µM [falling, single point] | 35.5 µM [falling, single point]
46 | C=C(C)CN=C1SC(C(=O)Nc2sc3c(c2C(=O)OC)CCC3)C(N)=C1C(N)=O (stereo unspecified) | 0.0891 µM [rising, partial curve, poor fit] | 4.47 µM [rising, partial curve]
47 | C=CCn1c(SCC(N)=O)nnc1-c1ccccc1O |  | 11.2 µM [rising, partial curve, poor fit]
48 | COc1ccc(-n2sc3c(c2=S)-c2cc(OC)ccc2NC3(C)C)cc1 |  | 35.5 µM [rising, single point]
49 | CC(C)C(c1nnnn1Cc1ccccc1)N1CCN(Cc2ccc3c(c2)OCO3)CC1 (stereo unspecified) | 11.2 µM [rising, partial curve, poor fit] | 11.2 µM [rising, partial curve, poor fit]
50 | Cc1cc(C)nc(SCc2ccc(C(=O)NNC(=O)Nc3cccc(Cl)c3)cc2)n1 |  | 11.2 µM [rising, partial curve]
51 | O=C(N/N=C/C(Br)=C\c1ccccc1)c1n[nH]c2c1CCC2 | 6.31 µM [falling, partial curve, poor fit] | 2.51 µM [falling, partial curve]
52 | CC(c1nnc(Sc2nnnn2-c2ccccc2)n1-c1ccc(F)cc1)N(C)C (stereo unspecified) |  | 10 µM [rising, partial curve]
53 | O=C(Nc1ccc2ccccc2c1)c1cn(-c2ccccc2)nc1-c1cccs1 | 0.02 µM [rising, partial curve] | 
54 | O=C(NCC1CCCO1)c1cc(S(=O)(=O)Nc2ccc(Br)cc2)ccc1Cl (stereo unspecified) |  | 15.8 µM [rising, partial curve]
55 | CCc1nc(SCc2nc3ccccc3[nH]2)c2oc3ccccc3c2n1 |  | 35.5 µM [rising, single point]
56 | Cc1cc(C(=O)CSc2ccc(Cl)cc2)cc(C)c1OC(=S)N(C)C |  | 12.6 µM [rising, single point]
